In PMC12259256:
Results are given in words; binding and its absence hold for the method and conditions named. In cells and extracts the contact can be indirect. Some entries that bind do so weakly or less than the wild type.

The chains behind the UniProt entries cited, without tags or fusion partners. Where a name states a change or a piece, a line headed by the entry shows the natural chain unless it says otherwise. Residues count along the entry.
UniProt P09874: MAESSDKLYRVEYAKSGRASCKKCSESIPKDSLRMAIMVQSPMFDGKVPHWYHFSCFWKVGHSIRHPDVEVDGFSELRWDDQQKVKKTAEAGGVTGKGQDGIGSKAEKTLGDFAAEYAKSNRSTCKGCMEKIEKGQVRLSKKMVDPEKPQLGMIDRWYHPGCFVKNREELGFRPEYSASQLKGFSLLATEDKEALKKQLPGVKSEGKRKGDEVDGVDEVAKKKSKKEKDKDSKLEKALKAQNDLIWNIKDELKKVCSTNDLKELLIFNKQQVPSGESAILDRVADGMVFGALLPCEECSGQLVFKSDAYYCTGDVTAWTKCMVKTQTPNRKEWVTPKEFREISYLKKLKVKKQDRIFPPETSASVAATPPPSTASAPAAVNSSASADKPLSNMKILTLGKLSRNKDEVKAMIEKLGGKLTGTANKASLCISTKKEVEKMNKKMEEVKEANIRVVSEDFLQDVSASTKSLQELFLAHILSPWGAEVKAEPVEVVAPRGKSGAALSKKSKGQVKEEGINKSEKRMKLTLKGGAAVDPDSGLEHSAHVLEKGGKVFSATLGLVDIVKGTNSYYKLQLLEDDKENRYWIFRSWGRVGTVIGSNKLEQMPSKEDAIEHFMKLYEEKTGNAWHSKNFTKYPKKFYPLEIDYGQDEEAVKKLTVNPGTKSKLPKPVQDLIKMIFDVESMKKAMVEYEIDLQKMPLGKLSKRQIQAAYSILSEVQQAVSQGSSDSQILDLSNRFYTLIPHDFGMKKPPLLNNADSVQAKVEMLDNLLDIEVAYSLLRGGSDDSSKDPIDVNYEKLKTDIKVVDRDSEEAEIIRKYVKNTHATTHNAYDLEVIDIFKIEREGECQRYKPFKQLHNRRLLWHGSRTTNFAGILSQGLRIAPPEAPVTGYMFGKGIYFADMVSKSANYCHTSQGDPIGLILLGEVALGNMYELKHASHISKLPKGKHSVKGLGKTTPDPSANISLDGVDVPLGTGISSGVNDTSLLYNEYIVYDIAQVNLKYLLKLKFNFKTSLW
UniProt P22607, residues 23-806: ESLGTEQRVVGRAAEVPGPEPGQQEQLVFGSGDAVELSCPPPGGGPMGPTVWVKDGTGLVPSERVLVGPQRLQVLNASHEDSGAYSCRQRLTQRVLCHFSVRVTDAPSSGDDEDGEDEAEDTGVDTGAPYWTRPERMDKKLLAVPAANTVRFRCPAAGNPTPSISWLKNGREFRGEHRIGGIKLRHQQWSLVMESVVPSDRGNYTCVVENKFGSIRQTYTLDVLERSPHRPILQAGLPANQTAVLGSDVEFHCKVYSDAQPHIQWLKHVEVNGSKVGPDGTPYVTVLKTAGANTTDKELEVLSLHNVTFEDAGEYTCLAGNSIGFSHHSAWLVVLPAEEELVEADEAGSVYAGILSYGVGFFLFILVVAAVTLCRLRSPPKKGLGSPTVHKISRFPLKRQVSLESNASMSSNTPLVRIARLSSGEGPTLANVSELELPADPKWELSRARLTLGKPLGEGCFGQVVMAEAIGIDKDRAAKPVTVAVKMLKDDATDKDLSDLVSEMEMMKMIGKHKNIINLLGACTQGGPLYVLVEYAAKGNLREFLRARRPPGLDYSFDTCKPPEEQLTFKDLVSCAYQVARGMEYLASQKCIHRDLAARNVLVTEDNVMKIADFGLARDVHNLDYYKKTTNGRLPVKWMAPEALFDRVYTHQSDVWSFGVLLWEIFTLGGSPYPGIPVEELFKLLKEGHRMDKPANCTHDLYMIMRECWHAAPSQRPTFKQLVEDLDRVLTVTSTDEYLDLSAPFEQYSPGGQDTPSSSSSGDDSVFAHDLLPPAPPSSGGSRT
UniProt P51532: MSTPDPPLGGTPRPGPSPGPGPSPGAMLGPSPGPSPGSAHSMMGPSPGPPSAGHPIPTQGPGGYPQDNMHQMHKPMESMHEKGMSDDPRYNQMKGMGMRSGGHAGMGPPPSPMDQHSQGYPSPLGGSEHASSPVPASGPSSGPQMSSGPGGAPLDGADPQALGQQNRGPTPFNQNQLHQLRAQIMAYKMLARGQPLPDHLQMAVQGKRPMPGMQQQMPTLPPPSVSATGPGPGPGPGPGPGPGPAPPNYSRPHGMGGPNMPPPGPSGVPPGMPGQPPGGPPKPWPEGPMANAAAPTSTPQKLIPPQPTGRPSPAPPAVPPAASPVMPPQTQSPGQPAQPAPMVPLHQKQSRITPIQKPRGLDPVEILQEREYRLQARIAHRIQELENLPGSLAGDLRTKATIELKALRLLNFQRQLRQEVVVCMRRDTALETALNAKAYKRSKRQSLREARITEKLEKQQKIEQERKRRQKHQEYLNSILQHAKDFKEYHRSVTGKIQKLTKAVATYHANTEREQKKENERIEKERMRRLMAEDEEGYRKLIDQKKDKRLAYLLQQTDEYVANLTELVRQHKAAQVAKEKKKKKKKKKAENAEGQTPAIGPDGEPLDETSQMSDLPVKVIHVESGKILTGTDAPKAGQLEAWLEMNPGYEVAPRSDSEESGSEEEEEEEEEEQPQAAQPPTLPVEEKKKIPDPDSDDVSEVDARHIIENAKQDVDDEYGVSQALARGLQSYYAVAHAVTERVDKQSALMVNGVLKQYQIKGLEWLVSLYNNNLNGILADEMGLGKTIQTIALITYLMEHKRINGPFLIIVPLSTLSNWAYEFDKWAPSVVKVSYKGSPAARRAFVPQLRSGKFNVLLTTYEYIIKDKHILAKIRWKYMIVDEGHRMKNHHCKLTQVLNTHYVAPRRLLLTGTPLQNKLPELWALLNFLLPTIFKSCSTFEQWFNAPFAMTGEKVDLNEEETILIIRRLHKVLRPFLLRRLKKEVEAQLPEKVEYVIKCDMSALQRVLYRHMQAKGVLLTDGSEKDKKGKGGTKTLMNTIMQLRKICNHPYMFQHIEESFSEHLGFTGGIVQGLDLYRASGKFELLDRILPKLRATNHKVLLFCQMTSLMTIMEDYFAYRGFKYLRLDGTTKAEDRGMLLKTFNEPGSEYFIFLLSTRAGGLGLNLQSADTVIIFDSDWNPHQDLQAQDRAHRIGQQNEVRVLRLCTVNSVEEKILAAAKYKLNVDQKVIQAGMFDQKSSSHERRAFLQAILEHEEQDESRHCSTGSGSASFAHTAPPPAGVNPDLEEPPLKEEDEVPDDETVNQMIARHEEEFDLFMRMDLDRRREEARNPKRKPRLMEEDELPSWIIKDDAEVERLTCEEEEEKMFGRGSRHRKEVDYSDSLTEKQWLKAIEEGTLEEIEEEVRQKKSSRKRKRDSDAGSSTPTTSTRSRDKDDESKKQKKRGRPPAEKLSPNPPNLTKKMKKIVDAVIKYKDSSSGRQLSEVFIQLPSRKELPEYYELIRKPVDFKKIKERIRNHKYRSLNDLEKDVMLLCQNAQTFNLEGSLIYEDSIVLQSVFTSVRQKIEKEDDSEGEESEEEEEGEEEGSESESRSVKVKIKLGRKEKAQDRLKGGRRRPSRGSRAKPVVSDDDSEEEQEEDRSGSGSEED

Legend:
[1] = target: HA-PARP1 Y158D (UniProt P09874); test: co-IP; BR#09 cells expressing HA-PARP1 wild type or mutants, treated with 100 nM talazoparib and 0.01% MMS for 1 hour; immunoprecipitation with anti-HA or control IgG, Western blot
[2] = target: HA-PARP1 Y158F (UniProt P09874); test: as above
[3] = target: HA-PARP1 wild type (UniProt P09874); test: as above
[4] = target: FGF receptor 3 (human (endogenous in SUM149 and SUM149-BR cells)) (UniProt P22607); test: co-IP; coimmunoprecipitation of FGFR3 and PARP1 from cells; seen also in untreated cells and in parental SUM149 cells; which protein was precipitated is not told in the main text
[5] = target: FGF receptor 3 (human (endogenous in SUM149 and SUM149-BR cells)) (UniProt P22607); test: proximity ligation; BR#09 and BR#17 cells treated with 0.01% MMS and inhibitors (100 nM talazoparib, 10 uM PD173074 or both), PLA with FGFR3 and PARP1 antibodies; nuclear PLA signals counted; signal attenuated with the combination

binding [1]	binding [2]	binding [3]	binding [4]	binding [5]	Substance
binds	binds	binds	–	–	Brahma-related gene 1 (from UniProt P51532 1-1647)
–	–	–	binds	binds	poly(ADP-ribose) polymerase 1 (from UniProt P09874 1-1014) (enzyme)
